From the supplement of paper PMC10849652
Some of the results follow.

The chains behind the UniProt entries cited, without tags or fusion partners. Where a name states a change or a piece, a line headed by the entry shows the natural chain unless it says otherwise.
UniProt Q7L523, whole entry, looked up: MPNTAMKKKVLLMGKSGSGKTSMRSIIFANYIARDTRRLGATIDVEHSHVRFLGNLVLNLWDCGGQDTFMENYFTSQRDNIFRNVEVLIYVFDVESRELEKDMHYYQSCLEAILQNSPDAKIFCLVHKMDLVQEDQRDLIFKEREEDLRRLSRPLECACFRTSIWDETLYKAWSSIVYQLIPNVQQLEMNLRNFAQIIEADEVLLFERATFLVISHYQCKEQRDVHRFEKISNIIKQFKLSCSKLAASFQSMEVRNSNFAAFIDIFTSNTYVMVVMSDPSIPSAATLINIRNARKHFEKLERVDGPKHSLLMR
UniProt P08922: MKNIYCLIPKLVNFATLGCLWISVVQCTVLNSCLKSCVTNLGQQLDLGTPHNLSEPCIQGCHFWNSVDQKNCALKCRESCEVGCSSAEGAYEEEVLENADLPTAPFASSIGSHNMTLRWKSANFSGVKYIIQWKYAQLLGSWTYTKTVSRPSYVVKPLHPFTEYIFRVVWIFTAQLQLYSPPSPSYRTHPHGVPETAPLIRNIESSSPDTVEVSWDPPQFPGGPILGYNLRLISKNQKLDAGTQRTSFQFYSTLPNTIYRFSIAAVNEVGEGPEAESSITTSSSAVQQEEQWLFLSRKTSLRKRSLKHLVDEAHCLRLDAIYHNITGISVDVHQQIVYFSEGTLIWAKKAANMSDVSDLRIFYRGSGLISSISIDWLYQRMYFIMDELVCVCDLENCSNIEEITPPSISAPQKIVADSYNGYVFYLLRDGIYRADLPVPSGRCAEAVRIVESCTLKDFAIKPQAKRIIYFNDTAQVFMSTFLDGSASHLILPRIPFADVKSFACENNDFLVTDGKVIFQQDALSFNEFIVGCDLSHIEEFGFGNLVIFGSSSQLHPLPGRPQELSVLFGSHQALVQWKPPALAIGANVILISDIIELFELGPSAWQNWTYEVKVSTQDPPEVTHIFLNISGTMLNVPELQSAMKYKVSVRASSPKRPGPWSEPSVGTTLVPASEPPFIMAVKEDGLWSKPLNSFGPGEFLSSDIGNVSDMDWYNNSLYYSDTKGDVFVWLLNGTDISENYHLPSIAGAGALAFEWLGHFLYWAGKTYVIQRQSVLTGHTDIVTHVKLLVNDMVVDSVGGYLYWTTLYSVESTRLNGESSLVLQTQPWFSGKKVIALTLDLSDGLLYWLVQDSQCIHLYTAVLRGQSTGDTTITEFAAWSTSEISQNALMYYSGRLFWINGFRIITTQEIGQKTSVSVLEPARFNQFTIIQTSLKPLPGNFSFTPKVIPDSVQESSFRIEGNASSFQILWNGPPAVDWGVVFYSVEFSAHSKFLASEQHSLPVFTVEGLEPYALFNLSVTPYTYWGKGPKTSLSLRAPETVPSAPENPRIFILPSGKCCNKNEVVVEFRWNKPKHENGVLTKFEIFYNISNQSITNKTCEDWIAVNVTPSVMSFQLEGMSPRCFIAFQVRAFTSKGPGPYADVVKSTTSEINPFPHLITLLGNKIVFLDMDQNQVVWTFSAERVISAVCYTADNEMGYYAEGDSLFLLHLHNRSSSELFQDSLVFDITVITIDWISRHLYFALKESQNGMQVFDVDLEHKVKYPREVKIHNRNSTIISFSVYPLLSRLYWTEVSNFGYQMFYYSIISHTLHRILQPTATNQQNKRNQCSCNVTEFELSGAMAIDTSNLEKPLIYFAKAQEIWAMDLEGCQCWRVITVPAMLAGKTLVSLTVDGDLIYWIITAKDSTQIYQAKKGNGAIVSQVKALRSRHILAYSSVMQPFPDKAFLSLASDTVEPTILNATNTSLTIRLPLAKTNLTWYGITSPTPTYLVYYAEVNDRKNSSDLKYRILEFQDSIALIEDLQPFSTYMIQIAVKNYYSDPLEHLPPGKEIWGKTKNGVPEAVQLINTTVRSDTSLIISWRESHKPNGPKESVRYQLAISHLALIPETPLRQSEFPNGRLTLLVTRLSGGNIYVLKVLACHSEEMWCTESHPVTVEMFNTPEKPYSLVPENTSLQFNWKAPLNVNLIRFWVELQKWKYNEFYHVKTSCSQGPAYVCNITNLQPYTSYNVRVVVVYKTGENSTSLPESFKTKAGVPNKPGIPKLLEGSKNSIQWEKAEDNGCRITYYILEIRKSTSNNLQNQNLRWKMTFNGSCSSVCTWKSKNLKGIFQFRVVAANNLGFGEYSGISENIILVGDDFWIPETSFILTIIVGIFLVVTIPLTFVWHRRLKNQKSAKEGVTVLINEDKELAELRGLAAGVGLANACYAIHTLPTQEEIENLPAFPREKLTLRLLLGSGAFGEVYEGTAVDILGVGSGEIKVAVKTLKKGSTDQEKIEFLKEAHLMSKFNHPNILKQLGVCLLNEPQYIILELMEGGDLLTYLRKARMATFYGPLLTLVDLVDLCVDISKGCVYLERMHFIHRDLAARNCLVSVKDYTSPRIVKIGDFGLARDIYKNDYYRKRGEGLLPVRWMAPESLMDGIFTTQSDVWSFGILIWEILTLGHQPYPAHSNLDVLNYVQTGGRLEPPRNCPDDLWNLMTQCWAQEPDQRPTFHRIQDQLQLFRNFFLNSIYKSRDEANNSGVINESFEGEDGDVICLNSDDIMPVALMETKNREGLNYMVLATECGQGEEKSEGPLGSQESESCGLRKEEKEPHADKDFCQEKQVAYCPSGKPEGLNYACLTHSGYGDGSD
UniProt P04843: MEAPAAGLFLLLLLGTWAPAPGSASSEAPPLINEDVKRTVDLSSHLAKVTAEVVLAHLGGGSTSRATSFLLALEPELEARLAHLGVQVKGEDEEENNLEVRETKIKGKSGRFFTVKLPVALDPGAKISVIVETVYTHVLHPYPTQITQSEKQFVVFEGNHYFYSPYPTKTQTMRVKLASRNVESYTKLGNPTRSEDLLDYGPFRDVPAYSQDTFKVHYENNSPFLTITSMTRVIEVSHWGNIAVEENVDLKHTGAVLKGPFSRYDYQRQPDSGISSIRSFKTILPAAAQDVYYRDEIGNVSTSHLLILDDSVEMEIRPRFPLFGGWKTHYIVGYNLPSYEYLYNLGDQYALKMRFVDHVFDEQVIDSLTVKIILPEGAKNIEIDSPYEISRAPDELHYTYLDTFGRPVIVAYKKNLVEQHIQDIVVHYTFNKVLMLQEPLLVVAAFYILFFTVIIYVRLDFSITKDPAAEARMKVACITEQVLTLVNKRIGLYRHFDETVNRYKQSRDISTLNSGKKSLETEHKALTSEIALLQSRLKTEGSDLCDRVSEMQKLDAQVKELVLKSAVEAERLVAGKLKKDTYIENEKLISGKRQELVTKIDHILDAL
UniProt Q01974, whole entry, looked up: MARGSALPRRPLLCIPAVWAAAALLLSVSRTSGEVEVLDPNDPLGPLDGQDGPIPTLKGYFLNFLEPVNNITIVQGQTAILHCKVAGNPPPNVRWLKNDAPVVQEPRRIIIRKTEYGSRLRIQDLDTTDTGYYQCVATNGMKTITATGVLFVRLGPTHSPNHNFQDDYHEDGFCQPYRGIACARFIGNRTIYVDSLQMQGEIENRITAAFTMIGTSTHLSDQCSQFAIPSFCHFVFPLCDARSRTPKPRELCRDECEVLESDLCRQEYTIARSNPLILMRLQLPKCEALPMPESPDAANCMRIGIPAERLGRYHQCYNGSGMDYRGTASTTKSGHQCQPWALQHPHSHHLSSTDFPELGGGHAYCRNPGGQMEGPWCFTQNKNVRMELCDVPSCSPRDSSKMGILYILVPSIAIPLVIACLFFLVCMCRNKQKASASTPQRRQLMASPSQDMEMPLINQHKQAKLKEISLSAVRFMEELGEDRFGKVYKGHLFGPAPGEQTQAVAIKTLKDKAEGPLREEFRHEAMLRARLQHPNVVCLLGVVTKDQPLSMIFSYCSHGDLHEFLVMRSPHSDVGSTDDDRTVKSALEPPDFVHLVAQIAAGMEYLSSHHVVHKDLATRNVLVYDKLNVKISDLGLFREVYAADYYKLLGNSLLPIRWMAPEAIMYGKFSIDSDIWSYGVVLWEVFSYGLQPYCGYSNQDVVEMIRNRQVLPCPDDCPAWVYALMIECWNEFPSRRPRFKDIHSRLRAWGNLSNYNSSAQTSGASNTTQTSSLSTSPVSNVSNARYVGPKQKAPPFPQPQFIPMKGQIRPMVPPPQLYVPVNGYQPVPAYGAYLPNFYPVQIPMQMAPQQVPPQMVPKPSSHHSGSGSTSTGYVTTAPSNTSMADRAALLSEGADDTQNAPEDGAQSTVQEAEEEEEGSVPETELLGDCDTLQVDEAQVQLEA
UniProt P35244: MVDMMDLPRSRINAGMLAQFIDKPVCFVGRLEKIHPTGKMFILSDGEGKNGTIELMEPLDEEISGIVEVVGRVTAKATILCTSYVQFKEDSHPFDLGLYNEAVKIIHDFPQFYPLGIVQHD
UniProt P23443: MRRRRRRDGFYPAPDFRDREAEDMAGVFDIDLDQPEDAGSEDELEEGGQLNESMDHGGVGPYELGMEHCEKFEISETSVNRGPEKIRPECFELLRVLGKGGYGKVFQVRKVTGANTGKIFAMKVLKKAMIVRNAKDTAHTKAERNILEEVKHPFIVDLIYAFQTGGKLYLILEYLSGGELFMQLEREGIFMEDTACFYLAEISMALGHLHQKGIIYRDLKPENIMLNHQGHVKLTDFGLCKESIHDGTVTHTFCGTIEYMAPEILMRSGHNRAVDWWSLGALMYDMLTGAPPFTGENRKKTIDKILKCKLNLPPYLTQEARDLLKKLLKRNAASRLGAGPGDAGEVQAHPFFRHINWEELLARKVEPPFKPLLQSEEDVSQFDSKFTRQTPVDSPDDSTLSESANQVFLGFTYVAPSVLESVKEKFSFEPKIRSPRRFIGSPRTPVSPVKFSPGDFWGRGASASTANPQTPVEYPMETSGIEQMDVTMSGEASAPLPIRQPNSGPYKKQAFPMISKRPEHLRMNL
UniProt O60942: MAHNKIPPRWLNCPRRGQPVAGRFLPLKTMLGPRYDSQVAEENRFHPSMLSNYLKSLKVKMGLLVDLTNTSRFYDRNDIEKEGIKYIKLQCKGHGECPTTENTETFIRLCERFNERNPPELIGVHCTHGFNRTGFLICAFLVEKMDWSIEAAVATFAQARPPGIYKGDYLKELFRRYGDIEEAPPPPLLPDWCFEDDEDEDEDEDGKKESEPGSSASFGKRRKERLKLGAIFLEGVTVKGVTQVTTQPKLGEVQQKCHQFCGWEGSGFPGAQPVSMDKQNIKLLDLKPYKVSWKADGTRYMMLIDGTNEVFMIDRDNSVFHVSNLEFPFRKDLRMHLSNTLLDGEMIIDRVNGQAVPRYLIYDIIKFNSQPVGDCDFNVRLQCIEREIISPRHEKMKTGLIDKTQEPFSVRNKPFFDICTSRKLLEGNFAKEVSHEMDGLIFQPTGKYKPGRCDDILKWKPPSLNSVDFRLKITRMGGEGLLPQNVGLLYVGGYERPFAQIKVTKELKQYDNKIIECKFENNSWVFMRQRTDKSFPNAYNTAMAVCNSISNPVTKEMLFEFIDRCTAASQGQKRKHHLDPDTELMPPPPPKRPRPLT
UniProt Q96S38: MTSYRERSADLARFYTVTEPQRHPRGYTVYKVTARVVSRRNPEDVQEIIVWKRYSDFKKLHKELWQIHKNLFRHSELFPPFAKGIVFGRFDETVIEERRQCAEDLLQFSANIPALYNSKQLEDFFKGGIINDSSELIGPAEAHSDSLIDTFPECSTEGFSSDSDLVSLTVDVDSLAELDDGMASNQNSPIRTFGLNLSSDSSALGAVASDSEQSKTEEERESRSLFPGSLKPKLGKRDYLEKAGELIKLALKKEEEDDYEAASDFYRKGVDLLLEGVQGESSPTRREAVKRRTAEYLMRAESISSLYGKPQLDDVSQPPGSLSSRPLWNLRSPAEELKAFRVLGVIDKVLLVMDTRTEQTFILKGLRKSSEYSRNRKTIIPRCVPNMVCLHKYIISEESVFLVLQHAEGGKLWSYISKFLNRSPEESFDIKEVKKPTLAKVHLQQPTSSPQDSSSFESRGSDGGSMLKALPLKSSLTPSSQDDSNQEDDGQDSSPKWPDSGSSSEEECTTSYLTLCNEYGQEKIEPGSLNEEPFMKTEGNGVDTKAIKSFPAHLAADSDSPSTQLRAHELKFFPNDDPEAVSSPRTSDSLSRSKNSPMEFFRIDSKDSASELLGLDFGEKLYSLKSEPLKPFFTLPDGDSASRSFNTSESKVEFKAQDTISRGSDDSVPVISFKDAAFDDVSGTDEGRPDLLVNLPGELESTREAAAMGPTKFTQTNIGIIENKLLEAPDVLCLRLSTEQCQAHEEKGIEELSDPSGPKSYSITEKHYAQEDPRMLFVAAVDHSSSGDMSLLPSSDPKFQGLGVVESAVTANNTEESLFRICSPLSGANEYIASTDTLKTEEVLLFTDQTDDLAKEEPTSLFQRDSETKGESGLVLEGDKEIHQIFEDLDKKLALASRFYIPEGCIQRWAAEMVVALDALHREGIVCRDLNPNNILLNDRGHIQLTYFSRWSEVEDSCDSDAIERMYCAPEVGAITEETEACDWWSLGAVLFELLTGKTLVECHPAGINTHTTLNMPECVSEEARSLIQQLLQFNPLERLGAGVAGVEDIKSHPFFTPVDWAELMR

Legend:
Experiment in all cases: log2 fold change, soluble protein after heating vs DMSO (PISA); higher = thermal stabilisation; K562 cells, 10 uM, 30 min; active = over 0.2 and 3.5 SD of the protein, either way, in both replicates (recomputed)
[1] = compound: COC1=CC=C(C=C1)CN2C=CC3=C2C=C(C=C3)C(=O)NO
Method in brief: (§1)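 For each measurement, 10 μM compound was applied for 30 min to K562 cells at 2×10^6 cells/mL. Aliquots were heated for 3 min across 48°C-58°C, pooled, and extracted in PBS with 0.5% NP-40 at 4°C; the supernatant after 21,000xg for 90 min was soluble protein. This was quantified by TMTpro 16plex LC-MS/MS with channel sums equalised, and thermal stability was reported relative to control samples from duplicates, on a log2 fold-change scale.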

filanesib = compound: CON(C)C(=O)N1N=C(c2cc(F)ccc2F)S[C@@]1(CCCN)c1ccccc1 [filanesib]
Method in brief: as §1

zotarolimus = compound: CO[C@H]1C[C@@H]2CC[C@@H](C)[C@@](O)(O2)C(=O)C(=O)N2CCCC[C@H]2C(=O)O[C@H]([C@H](C)C[C@@H]2CC[C@H](n3cnnn3)[C@H](OC)C2)CC(=O)[C@H](C)/C=C(\C)[C@@H](O)[C@@H](OC)C(=O)[C@H](C)C[C@H](C)/C=C/C=C/C=C/1C [zotarolimus]
Method in brief: as §1

idasanutlin = compound: COc1cc(C(=O)O)ccc1NC(=O)[C@@H]1N[C@@H](CC(C)(C)C)[C@](C#N)(c2ccc(Cl)cc2F)[C@H]1c1cccc(Cl)c1F [idasanutlin]
Method in brief: as §1

alisertib = compound: COc1cc(Nc2ncc3c(n2)-c2ccc(Cl)cc2C(c2c(F)cccc2OC)=NC3)ccc1C(=O)O [alisertib]
Method in brief: as §1

[2] = compound: COc1cc2nc(-c3cc(F)ccc3O)nc(N[C@@H]3CNC[C@H]3C(C)(C)O)c2cc1OC
Method in brief: as §1

gefitinib = compound: COc1cc2ncnc(Nc3ccc(F)c(Cl)c3)c2cc1OCCCN1CCOCC1 [gefitinib]
Method in brief: as §1

[3] = compound: COc1cccc2cc(-c3nc([C@H]4CC[C@H](C(=O)O)CC4)n4ncnc(N)c34)[nH]c12
Method in brief: as §1

lapatinib = compound: CS(=O)(=O)CCNCc1ccc(-c2ccc3ncnc(Nc4ccc(OCc5cccc(F)c5)c(Cl)c4)c3c2)o1 [lapatinib]
Method in brief: as §1

pictilisib = compound: CS(=O)(=O)N1CCN(Cc2cc3nc(-c4cccc5[nH]ncc45)nc(N4CCOCC4)c3s2)CC1 [pictilisib]
Method in brief: as §1

Measured: log2 fold change

RPL31 (UniProt P62899)
inactive: [1] -0.084 | filanesib 0.277 | zotarolimus -0.013 | idasanutlin 0.151 | alisertib -0.118 | [2] -0.013 | gefitinib -0.075 | [3] -0.25 | lapatinib 0.103 | pictilisib -0.092

RPS27L (UniProt Q71UM5)
inactive: [1] 0.044 | filanesib 0.065 | zotarolimus 0.04 | idasanutlin 0.056 | alisertib -0.053 | [2] 0.036 | gefitinib -0.035 | [3] -0.152 | lapatinib -0.012 | pictilisib 0

RPL27A (UniProt P46776)
inactive: [1] -0.098 | filanesib 0.572 | zotarolimus -0.092 | idasanutlin 0.258 | alisertib -0.222 | [2] -0.14 | gefitinib -0.015 | [3] -0.41 | lapatinib 0.218 | pictilisib -0.252

RPS2 (UniProt P15880)
inactive: [1] -0.049 | filanesib 0.214 | zotarolimus -0.013 | idasanutlin 0.114 | alisertib -0.1 | [2] -0.027 | gefitinib -0.05 | [3] -0.184 | lapatinib 0.094 | pictilisib -0.143

RRAGA (UniProt Q7L523)
inactive: [1] 0.318 | filanesib 0.084 | zotarolimus 0.055 | idasanutlin 0.109 | alisertib -0.053 | [2] -0.057 | gefitinib -0.046 | [3] 0.044 | lapatinib -0.126 | pictilisib -0.158

RPN2 (UniProt P04844)
inactive: [1] 0 | filanesib -0.038 | zotarolimus 0.024 | idasanutlin -0.014 | alisertib -0.066 | [2] -0.054 | gefitinib -0.006 | [3] 0.005 | lapatinib 0.073 | pictilisib -0.007

RPL26L1 (UniProt Q9UNX3)
inactive: [1] -0.16 | filanesib 0.45 | zotarolimus 0.068 | idasanutlin 0.206 | alisertib -0.21 | [2] -0.051 | gefitinib -0.092 | [3] -0.405 | lapatinib 0.175 | pictilisib -0.08

ROS1 (UniProt P08922)
inactive: [1] -0.357 | filanesib 0.567 | zotarolimus -0.073 | idasanutlin -0.122 | alisertib -0.028 | [2] 0.207 | gefitinib -0.044 | [3] 0.069 | lapatinib -0.091 | pictilisib 0.19

RPL36 (UniProt Q9Y3U8)
inactive: [1] -0.061 | filanesib 0.684 | zotarolimus 0.06 | idasanutlin 0.303 | alisertib -0.422 | [2] -0.171 | gefitinib -0.074 | [3] -0.355 | lapatinib 0.407 | pictilisib -0.156

RPL23A (UniProt P62750)
inactive: [1] -0.032 | filanesib 0.408 | zotarolimus 0.033 | idasanutlin 0.184 | alisertib -0.09 | [2] -0.145 | gefitinib -0.056 | [3] -0.256 | lapatinib 0.129 | pictilisib -0.192

RPN1 (UniProt P04843)
inactive: [1] -0.017 | filanesib -0.07 | zotarolimus -0.005 | idasanutlin -0.034 | alisertib -0.046 | [2] -0.002 | gefitinib -0.017 | [3] 0.025 | lapatinib -0.041 | pictilisib -0.011

RPL38 (UniProt P63173)
inactive: [1] -0.109 | filanesib 0 | zotarolimus -0.007 | idasanutlin 0.055 | alisertib -0.064 | [2] 0.061 | gefitinib -0.074 | [3] -0.171 | lapatinib 0.05 | pictilisib -0.053

RPL37A (UniProt P61513)
inactive: [1] 0.013 | filanesib 0.618 | zotarolimus 0.092 | idasanutlin 0.372 | alisertib -0.215 | [2] -0.098 | gefitinib -0.08 | [3] -0.503 | lapatinib 0.331 | pictilisib -0.052

RPS9 (UniProt P46781)
inactive: [1] -0.036 | filanesib 0.237 | zotarolimus 0.032 | idasanutlin 0.098 | alisertib -0.101 | [2] -0.083 | gefitinib -0.055 | [3] -0.211 | lapatinib 0.084 | pictilisib -0.195

RPS27A (UniProt P62979)
inactive: [1] -0.084 | filanesib 0.215 | zotarolimus 0.009 | idasanutlin 0.129 | alisertib -0.041 | [2] -0.066 | gefitinib -0.076 | [3] -0.185 | lapatinib -0.006 | pictilisib -0.13

Reprinted from the results shown (eight entries):
RPN2 (UniProt P04844)
inactive: [1] 0 | filanesib -0.038 | zotarolimus 0.024 | idasanutlin -0.014 | alisertib -0.066 | [2] -0.054 | gefitinib -0.006 | [3] 0.005 | lapatinib 0.073 | pictilisib -0.007

RPL26L1 (UniProt Q9UNX3)
inactive: [1] -0.16 | filanesib 0.45 | zotarolimus 0.068 | idasanutlin 0.206 | alisertib -0.21 | [2] -0.051 | gefitinib -0.092 | [3] -0.405 | lapatinib 0.175 | pictilisib -0.08

ROS1 (UniProt P08922)
inactive: [1] -0.357 | filanesib 0.567 | zotarolimus -0.073 | idasanutlin -0.122 | alisertib -0.028 | [2] 0.207 | gefitinib -0.044 | [3] 0.069 | lapatinib -0.091 | pictilisib 0.19

RPL36 (UniProt Q9Y3U8)
inactive: [1] -0.061 | filanesib 0.684 | zotarolimus 0.06 | idasanutlin 0.303 | alisertib -0.422 | [2] -0.171 | gefitinib -0.074 | [3] -0.355 | lapatinib 0.407 | pictilisib -0.156

RPL23A (UniProt P62750)
inactive: [1] -0.032 | filanesib 0.408 | zotarolimus 0.033 | idasanutlin 0.184 | alisertib -0.09 | [2] -0.145 | gefitinib -0.056 | [3] -0.256 | lapatinib 0.129 | pictilisib -0.192

RPN1 (UniProt P04843)
inactive: [1] -0.017 | filanesib -0.07 | zotarolimus -0.005 | idasanutlin -0.034 | alisertib -0.046 | [2] -0.002 | gefitinib -0.017 | [3] 0.025 | lapatinib -0.041 | pictilisib -0.011

RPL38 (UniProt P63173)
inactive: [1] -0.109 | filanesib 0 | zotarolimus -0.007 | idasanutlin 0.055 | alisertib -0.064 | [2] 0.061 | gefitinib -0.074 | [3] -0.171 | lapatinib 0.05 | pictilisib -0.053

RPL37A (UniProt P61513)
inactive: [1] 0.013 | filanesib 0.618 | zotarolimus 0.092 | idasanutlin 0.372 | alisertib -0.215 | [2] -0.098 | gefitinib -0.08 | [3] -0.503 | lapatinib 0.331 | pictilisib -0.052

(continued)

RPS3 (UniProt P23396)
inactive: [1] -0.093 | filanesib 0.102 | zotarolimus -0.023 | idasanutlin 0.055 | alisertib -0.05 | [2] -0.027 | gefitinib -0.056 | [3] -0.149 | lapatinib 0.053 | pictilisib -0.059

RPS20 isoform 2 (UniProt P60866)
inactive: [1] -0.086 | filanesib 0.085 | zotarolimus 0.019 | idasanutlin 0.047 | alisertib -0.018 | [2] -0.015 | gefitinib -0.036 | [3] -0.157 | lapatinib 0.108 | pictilisib -0.006

ROR2 (UniProt Q01974)
inactive: [1] -0.172 | filanesib -0.017 | zotarolimus 0.082 | idasanutlin 0 | alisertib -0.013 | [2] 0.022 | gefitinib 0.009 | [3] 0.012 | lapatinib 0.021 | pictilisib -0.079

RPL37 (UniProt P61927)
inactive: [1] -0.043 | filanesib 0.528 | zotarolimus -0.074 | idasanutlin 0.247 | alisertib -0.104 | [2] -0.219 | gefitinib -0.033 | [3] -0.224 | lapatinib -0.058 | pictilisib -0.205

RRAS2 isoform 4 (UniProt P62070)
inactive: [1] 0.004 | filanesib 0.059 | zotarolimus -0.025 | idasanutlin 0.016 | alisertib -0.099 | [2] 0.075 | gefitinib 0.061 | [3] 0.093 | lapatinib 0.017 | pictilisib 0.05

RPA3 (UniProt P35244)
inactive: [1] 0.054 | filanesib -0.038 | zotarolimus 0.056 | idasanutlin -0.064 | alisertib 0.073 | [2] -0.05 | gefitinib -0.01 | [3] -0.048 | lapatinib 0.04 | pictilisib 0.046

RPS6KB1 (UniProt P23443)
inactive: [1] 0.013 | filanesib -0.067 | zotarolimus 0.004 | idasanutlin -0.114 | alisertib -0.036 | [2] 0.041 | gefitinib -0.033 | [3] 0.01 | lapatinib -0.01 | pictilisib 0.013

RRAGC (UniProt Q9HB90)
inactive: [1] -0.028 | filanesib -0.095 | zotarolimus -0.009 | idasanutlin -0.065 | alisertib -0.003 | [2] 0.011 | gefitinib -0.01 | [3] 0.057 | lapatinib -0.01 | pictilisib 0.066

RNGTT (UniProt O60942)
inactive: [1] -0.019 | filanesib -0.077 | zotarolimus -0.012 | idasanutlin -0.114 | alisertib -0.072 | [2] 0 | gefitinib 0.024 | [3] 0.062 | lapatinib 0.045 | pictilisib 0.17

RPS6KC1 (UniProt Q96S38)
inactive: [1] -0.156 | filanesib -0.013 | zotarolimus -0.055 | idasanutlin 0 | alisertib -0.012 | [2] -0.006 | gefitinib 0.038 | [3] 0.152 | lapatinib 0.01 | pictilisib -0.065

RPP21 isoform 4 (UniProt Q9H633)
inactive: [1] 0.05 | filanesib -0.055 | zotarolimus 0.15 | idasanutlin 0.082 | alisertib 0.004 | [2] -0.051 | gefitinib -0.047 | [3] 0.026 | lapatinib -0.003 | pictilisib -0.234

RPS3A (UniProt P61247)
inactive: [1] -0.112 | filanesib 0.117 | zotarolimus 0.006 | idasanutlin 0.069 | alisertib -0.052 | [2] -0.009 | gefitinib -0.06 | [3] -0.152 | lapatinib 0.053 | pictilisib -0.078

RPRD1B (UniProt Q9NQG5)
inactive: [1] 0.014 | filanesib 0.022 | zotarolimus -0.018 | idasanutlin -0.031 | alisertib -0.011 | [2] 0.106 | gefitinib 0.037 | [3] 0.061 | lapatinib -0.004 | pictilisib 0.019

RPS15 (UniProt P62841)
inactive: [1] 0.086 | filanesib 0.192 | zotarolimus -0.082 | idasanutlin 0.049 | alisertib -0.107 | [2] 0.027 | gefitinib 0.008 | [3] -0.147 | lapatinib -0.01 | pictilisib -0.054
